Experimental data: PubChem BioAssay AID504793 (Drosophila RNAi Screening Center, 2011)
Test: 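Knock-downs allowing continued mitosis even though DNA is damaged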 (primary screen). System: Drosophila S2R+ cells. Knock-down reagent: long dsRNA against Drosophila genes, about 0.25 µg dsRNA per well. Time to read-out: 4 days of dsRNA, then 4 hours of drug before read-out. Conditions: doxorubicin 0.5 µM for 4 hours to cause double-strand breaks, in cells also given a low, harmless dose of dsRNA against nbs to sensitise the assay. Measured: 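Per-well count of mitotic cells stained for phospho-histone H3 after doxorubicin exposure, used as mitotic index; counts are raw and not normalised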. Scale: mitotic cells: higher = more cells in mitosis, weaker G2 arrest. Rule for the call: 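Genes are called active only when high mitotic counts were reproduced with independent dsRNAs and mitosis was checked for delay without damage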. Calls: active = confirmed in follow-up tests; inactive = not confirmed.
In all, the deposit lists about 23,000 reagents; this is a random part of those with a known target gene and a result. Over the whole deposit, 62 (0.27%) are marked active. 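Calls come from follow-up tests whose scores are not deposited, so confirmed genes may have low counts here; counts are not normalised per plate.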 Raw values vary from plate to plate and are shown uncorrected. The numbers tell different reagents against one gene apart. A plus sign joins genes that one reagent is predicted to hit. Reagent sequences are not shown.

Gene,dsRNA no.,"mitotic cells, replicate 1","mitotic cells, replicate 2",outcome
del (deadlock),1,16,,inactive
CheB38b (Chemosensory protein B 38b),1,9,,inactive
Ugt35C1 (UDP-glycosyltransferase family 35 member C1),1,2,,inactive
Ugt35C1 (UDP-glycosyltransferase family 35 member C1),2,2,,inactive
rad (retired record),1,15,,inactive
rad (retired record),2,8,,inactive
VhaPPA1-2 (Vacuolar H[+] ATPase PPA1 subunit 2),1,2,,inactive
VhaPPA1-2 (Vacuolar H[+] ATPase PPA1 subunit 2),2,4,,inactive
CG10104,1,12,,inactive
"Trpm (Transient receptor potential cation channel, subfamily M)",1,11,,inactive
"Trpm (Transient receptor potential cation channel, subfamily M)",2,14,,inactive
"Trpm (Transient receptor potential cation channel, subfamily M)",3,13,,inactive
"Trpm (Transient receptor potential cation channel, subfamily M)",4,9,,inactive
CG16758,1,26,,inactive
CG16758,2,3,,inactive
CG16758,3,6,,inactive
Culd (CUB and LDLa domain),1,8,,inactive
CG11164,1,15,,inactive
esg (escargot),1,3,,inactive
Cnb (Centrobin),1,8,,inactive
CG13689,1,8,,inactive
Atf3 (Activating transcription factor 3),1,8,,inactive
CG3246,1,5,,inactive
DnaJ-H (DnaJ homolog),1,5,,inactive
eEF5 (eukaryotic translation elongation factor 5),1,5,,inactive
emb (embargoed),1,4,,inactive
Mical (Molecule interacting with CasL),1,11,,inactive
Mical (Molecule interacting with CasL),2,8,,inactive
Mical (Molecule interacting with CasL),3,4,,inactive
Mical (Molecule interacting with CasL),4,6,,inactive
CG11555,1,4,,inactive
CG12984,1,6,,inactive
obst-G (obstructor-G),1,3,,inactive
MED31 (Mediator complex subunit 31),1,22,,inactive
CG11791,1,7,,inactive
CG11791,2,3,,inactive
dnd (dead end),1,7,,inactive
thoc6,1,2,,inactive
CG12375,1,10,,inactive
CG12375,2,5,,inactive
puc (puckered),1,4,,inactive
puc (puckered),2,7,,inactive
klu (klumpfuss),1,8,,inactive
klu (klumpfuss),2,11,,inactive
nsl1 (non-specific lethal 1),1,28,,active
zen (zerknullt),1,4,,inactive
zen (zerknullt),2,1,,inactive
CG43339 + CG43338,1,6,,inactive
Ahcy (Adenosylhomocysteinase),1,8,,inactive
Ahcy (Adenosylhomocysteinase),2,4,,inactive
CG32450,1,4,,inactive
Gnpnat (Glucosamine-phosphate N-acetyltransferase),1,3,,inactive
CG15118,1,3,,inactive
Gr47a (Gustatory receptor 47a),1,7,,inactive
Phf5a (PHD finger protein 5a),1,25,,inactive
Apc2 (Adenomatous polyposis coli 2),1,5,,inactive
THG (tRNA-histidine guanylyltransferase),1,7,,inactive
CG11658,1,5,,inactive
Parp16 (Poly(ADP-ribose) polymerase 16),1,19,,inactive
Parp16 (Poly(ADP-ribose) polymerase 16),2,7,,inactive
CG17633,1,7,,inactive
CG17633,2,7,,inactive
Cdc23 (Cell division cycle 23),1,316,,inactive
CG15330,1,12,,inactive
sro (shroud),1,8,12,inactive
sro (shroud),2,7,,inactive
HmgD (High mobility group protein D),1,11,,inactive
HmgD (High mobility group protein D),2,6,,inactive
CG6225,1,6,,inactive
Cpr67Fa2 (Cuticular protein 67Fa2),1,9,,inactive
CG33491 (retired record) + CG33496 (retired record) + CG33487 (retired record) + 1 more,1,9,,inactive
PolG1 (DNA polymerase gamma subunit 1),1,2,,inactive
PolG1 (DNA polymerase gamma subunit 1),2,4,,inactive
Eaat1 (Excitatory amino acid transporter 1),1,6,,inactive
CG15130,1,7,,inactive
